Values of other authors as cited in patent publication US20230310533A1, “ACTIVE PHARMACEUTICAL INGREDIENT” (priority 2020, published 2023).
At least one compound was matched to its structure with a doubt left.

Test system: COVID-19
Conditions: human, in vivo

For `CCC(CC)COC(=O)[C@H](C)N[P@](=O)(OC[C@H]1O[C@@](C#N)(c2ccc3c(N)ncnn23)[C@H](O)[C@@H]1O)Oc1ccccc1` [remdesivir], the “Effect on recovery time or mortality rate” value is listed as “no effect on recovery time or mortality rate”.
